Counter-ions that a name gives are not always drawn. The list shows a part of the results. Hit calls seldom repeat between salt and free forms of one compound.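 Kinases were expressed as nanoluciferase fusions in K562 cells and luminescence was read every 4 h between 2 and 18 h as percent of control, DMSO set to 100% and a positive control to 0%. A time point counts as decreased when the signal drops significantly (2 sigma). The hit call is the authors' own, does not follow from the count of time points alone, and its rule is not shown.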
These compounds were tested against DYRK2 (UniProt Q92630) (assay: number of time points (of 5) at which kinase-Nluc abundance scored as decreased, DMSO-normalised (count); higher = more persistent destabilization). Conditions: K562; 2-18 h.

Amino acid sequences for entries named in this document (tags omitted). A change or cut given only in a name is not applied to a line headed by its entry.
UniProt Q92630: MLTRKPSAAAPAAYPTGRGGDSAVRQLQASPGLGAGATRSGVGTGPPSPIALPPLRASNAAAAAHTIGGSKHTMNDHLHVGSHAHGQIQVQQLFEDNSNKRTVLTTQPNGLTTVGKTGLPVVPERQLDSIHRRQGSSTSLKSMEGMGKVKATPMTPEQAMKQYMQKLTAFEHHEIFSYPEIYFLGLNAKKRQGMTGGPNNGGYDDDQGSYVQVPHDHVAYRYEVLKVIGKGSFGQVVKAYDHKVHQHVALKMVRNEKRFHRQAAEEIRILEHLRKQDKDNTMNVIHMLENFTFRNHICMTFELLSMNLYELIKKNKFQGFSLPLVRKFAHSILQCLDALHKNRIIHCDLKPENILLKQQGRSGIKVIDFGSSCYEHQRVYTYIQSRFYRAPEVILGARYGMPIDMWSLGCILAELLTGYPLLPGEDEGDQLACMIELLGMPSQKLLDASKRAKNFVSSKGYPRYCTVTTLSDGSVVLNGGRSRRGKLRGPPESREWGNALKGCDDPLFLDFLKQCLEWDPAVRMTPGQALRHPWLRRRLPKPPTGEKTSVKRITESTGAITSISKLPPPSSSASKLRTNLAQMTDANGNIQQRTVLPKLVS

`O=C1NC(=O)C(c2cn(-c3ccccc3)nc2-c2ccc(F)cc2)N1` (configuration not stated) (10 µM) and `CC[C@H](Nc1ncnc2[nH]cnc12)c1oc2ccccc2c(=O)c1-c1cccc(F)c1` [Tenalisib] (10 µM) are the same in “number of time points” value: 0 for the first, 0 for the second.

Going from `O=[N+]([O-])c1ccc(Sc2cccc[n+]2[O-])c2nonc12` (2.5 µM) to `CCOc1ccccc1C=C1C(=O)Nc2ccccc21` (10 µM), the “number of time points” value rises from 0 to 1.

`COc1nc(-c2ccnc(NC(=O)C3CC3)c2)sc1C(N)=O` [GSK-3β inhibitor 2] (10 µM) and `CC(=O)Nc1nc2ccc(-c3cnc(C)c(NC(=O)OC4CCCCC4)c3)cc2s1` (10 µM) are the same in “number of time points” value: 0 for the first, 0 for the second.

First: CCN1/C(=C/C(C)=O)Sc2ccc(OC)cc21 (10 µM)
Second: O=C1NC(=O)/C(=C/c2ccc(-c3ccc(F)cc3O)o2)S1 (10 µM)
The “number of time points” value of the first is higher: 2 for the first, 0 for the second.

`Nc1cccc(S(=O)(=O)N2CCCN(S(=O)(=O)c3ccc4c(c3)OCCO4)CC2)c1` (10 µM) and `CN(C)C(=O)c1ccc(S(=O)(=O)c2ccc(NC(=O)[C@@](C)(O)C(F)(F)F)c(Cl)c2)cc1` (10 µM) are the same in “number of time points” value: 0 for the first, 0 for the second.

`Nc1ncc(-c2ccc(C(=O)N3CCNCC3)cc2)nc1-c1ccc(C(F)(F)F)cc1` (10 µM) and `O=C(CO)N1CCC(c2n[nH]c(-c3ccc(Cl)cc3)c2-c2ccncn2)CC1` (10 µM) are the same in “number of time points” value: 0 for the first, 0 for the second.

`CC(C)(O)[C@@H]1CC[C@](C)([C@H]2[C@@H](O)C[C@@]3(C)[C@@H]4C[C@H](O[C@@H]5O[C@H](CO)[C@@H](O)[C@H](O)[C@H]5O)[C@H]5C(C)(C)[C@@H](O[C@@H]6OC[C@@H](O)[C@H](O)[C@H]6O[C@@H]6O[C@H](CO)[C@@H](O)[C@H](O)[C@H]6O)CC[C@@]56C[C@@]46CC[C@]23C)O1` [Astragaloside VI] (10 µM) and `O=C(O)c1cc(O)c2c(c1)[C@@H]([C@H]1c3cc(C(=O)O)cc(O)c3C(=O)c3c(O[C@@H]4O[C@H](CO)[C@@H](O)[C@H](O)[C@H]4O)cccc31)c1cccc(O[C@@H]3O[C@H](CO)[C@@H](O)[C@H](O)[C@H]3O)c1C2=O` [Sennoside B] (2.5 µM) are the same in “number of time points” value: 0 for the first, 0 for the second.

`COc1ccccc1/C=C1\C(=O)Nc2ccccc21` (10 µM) and `CN(C)Cc1cccc(N=C(c2ccccc2)c2c(O)[nH]c3cc(C(=O)N(C)C)ccc23)c1` (10 µM) are the same in “number of time points” value: 0 for the first, 0 for the second.

`CC1(N)CCN(c2cnc3c(-c4cccc(Cl)c4Cl)[nH]nc3n2)CC1` (2.5 µM) and `Cc1cc(Nc2cc(CN3CCOCC3)c3nc(C)c(Cc4ccc(Cl)cc4F)n3n2)n[nH]1` [Gandotinib] (2.5 µM) are the same in “number of time points” value: 0 for the first, 0 for the second.

`CC(C)C[C@H](NC(=O)[C@H](CCCCN)NC(=O)[C@H](CO)NC(=O)[C@@H](N)CC(C)C)C(N)=O` [LSKL, Inhibitor of Thrombospondin (TSP-1) (TFA)] (10 µM) and `CCc1cccc(CC)c1NC(=O)c1nn(C)c2c1CCc1cnc(Nc3ccc(C(=O)NC4CCN(C)CC4)cc3OC(F)(F)F)nc1-2` (2 µM) are the same in “number of time points” value: 0 for the first, 0 for the second.

Compared with `CN1CC[C@H](c2c(O)cc(O)c3c(=O)cc(-c4ccc(C(F)(F)F)cc4Cl)oc23)[C@H]1CO` [(2S,3R)-Voruciclib (hydrochloride)] (2.5 µM), `Cn1ncc(Cl)c1-c1cc(C(=O)N[C@H](CN)Cc2ccc(F)c(F)c2)sc1Cl` (10 µM) is lower in “number of time points” value: 2 for the first, 0 for the second.

First: C[C@H]1[C@H](OC(=O)CCC(=O)O)O[C@@H]2O[C@@]3(C)CC[C@H]4[C@H](C)CC[C@@H]1[C@@]24OO3 [Artesunate] (2.5 µM)
Second: O=C(Nc1ccc(Cl)cc1)C1CCCN(C(=O)c2cccc(-c3ccco3)c2)C1 (configuration not stated) (2.5 µM)
The “number of time points” value of the first is higher: 2 for the first, 0 for the second.

`c1ccc(-c2nn3c(c2-c2ccnc4cc(OCCN5CCOCC5)ccc24)CCC3)nc1` (10 µM) and `Cc1ccc(-c2ncn(-c3ccc(Nc4nccc(-c5cccc(N6CCOCC6)c5)n4)cc3)n2)cn1` (10 µM) are the same in “number of time points” value: 0 for the first, 0 for the second.

`COc1cc(N2CCC(N(C)C)CC2)ccc1Nc1ncc(Cl)c(Nc2ccccc2P(C)(C)=O)n1` (2.5 µM) and `COc1ncc(Nc2ncc([C@@H](C)N3CCN(S(C)(=O)=O)CC3)cc2-c2nc(C)nc(N)n2)cc1F` (10 µM) are the same in “number of time points” value: 0 for the first, 0 for the second.

`CC[C@@H]1[C@H](F)C(=O)N[C@@H]1COc1nccc2cc(C(N)=O)c(OC)cc12` (10 µM) and `O=C(Nc1ccc(Cl)c(Cl)c1)Nc1ccc2nnsc2c1` (10 µM) are the same in “number of time points” value: 0 for the first, 0 for the second.

First: OCCN(CCO)c1ccc(C(c2ccc(Cl)cc2)c2ccc(N(CCO)CCO)cc2)cc1 (10 µM)
Second: O=c1ccc2ccc(O)c(O)c2o1 [Daphnetin] (10 µM)
The “number of time points” value of the first is higher: 4 for the first, 0 for the second.
